Test [1] has as its target HA-tagged FBRSL1 long canonical isoform I1 (HA-FBRSL1-I1-pcDNA3.1), in HeLa cells (human) (UniProt Q9HCM7). Kind of test: proximity ligation; HeLa cells co-transfected with HA-FBRSL1 isoform and Flag-YY1, fixed the day after; anti-HA and anti-Flag M2 primary antibodies, Duolink PLA; signals exclusively in the nucleus.
For test [2], the target named is HA-tagged FBRSL1 long canonical isoform I1 (HA-FBRSL1-I1-pcDNA3.1) (human) (UniProt Q9HCM7). As to the kind of experiment: co-IP; HEK293 cells transfected with HA-FBRSL1 isoform, lysed in modified RIPA buffer 24 h after transfection; pre-cleared lysate incubated with anti-HA antibody in IP buffer (20 mM HEPES, 100 mM KCl, 1% triton X-100, pH 7.2) at 4 °C, protein G magnetic beads; western blot of endogenous YY1; two biological replicates.

Sequences of proteins named here, by UniProt entry; tags and fusion partners are left off.
UniProt Q9HCM7: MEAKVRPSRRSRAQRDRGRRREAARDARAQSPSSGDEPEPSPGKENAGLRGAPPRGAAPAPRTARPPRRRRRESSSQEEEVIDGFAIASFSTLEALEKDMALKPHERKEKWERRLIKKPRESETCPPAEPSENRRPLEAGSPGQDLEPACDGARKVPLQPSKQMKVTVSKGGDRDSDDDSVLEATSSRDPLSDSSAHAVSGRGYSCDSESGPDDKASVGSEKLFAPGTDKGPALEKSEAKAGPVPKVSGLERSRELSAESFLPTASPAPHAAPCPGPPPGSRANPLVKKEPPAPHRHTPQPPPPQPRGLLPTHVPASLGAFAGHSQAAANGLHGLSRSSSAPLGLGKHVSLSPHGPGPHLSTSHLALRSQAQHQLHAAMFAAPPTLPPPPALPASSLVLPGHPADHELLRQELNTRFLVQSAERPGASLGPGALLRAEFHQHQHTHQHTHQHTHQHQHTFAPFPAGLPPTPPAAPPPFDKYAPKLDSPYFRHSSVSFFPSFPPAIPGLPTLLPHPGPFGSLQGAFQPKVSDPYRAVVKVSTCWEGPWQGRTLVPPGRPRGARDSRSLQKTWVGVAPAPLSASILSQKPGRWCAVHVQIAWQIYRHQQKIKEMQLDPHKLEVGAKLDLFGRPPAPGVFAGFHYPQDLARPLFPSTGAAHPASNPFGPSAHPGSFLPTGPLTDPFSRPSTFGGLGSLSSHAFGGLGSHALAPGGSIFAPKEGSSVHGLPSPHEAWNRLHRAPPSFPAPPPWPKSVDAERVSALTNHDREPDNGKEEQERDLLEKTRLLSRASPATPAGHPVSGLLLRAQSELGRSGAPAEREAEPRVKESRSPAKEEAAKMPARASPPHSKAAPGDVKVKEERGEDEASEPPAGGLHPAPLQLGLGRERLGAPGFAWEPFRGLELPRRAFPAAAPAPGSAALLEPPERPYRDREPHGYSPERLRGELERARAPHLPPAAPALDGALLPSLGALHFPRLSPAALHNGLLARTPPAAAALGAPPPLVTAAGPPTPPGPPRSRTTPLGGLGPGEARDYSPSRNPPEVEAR
UniProt P25490: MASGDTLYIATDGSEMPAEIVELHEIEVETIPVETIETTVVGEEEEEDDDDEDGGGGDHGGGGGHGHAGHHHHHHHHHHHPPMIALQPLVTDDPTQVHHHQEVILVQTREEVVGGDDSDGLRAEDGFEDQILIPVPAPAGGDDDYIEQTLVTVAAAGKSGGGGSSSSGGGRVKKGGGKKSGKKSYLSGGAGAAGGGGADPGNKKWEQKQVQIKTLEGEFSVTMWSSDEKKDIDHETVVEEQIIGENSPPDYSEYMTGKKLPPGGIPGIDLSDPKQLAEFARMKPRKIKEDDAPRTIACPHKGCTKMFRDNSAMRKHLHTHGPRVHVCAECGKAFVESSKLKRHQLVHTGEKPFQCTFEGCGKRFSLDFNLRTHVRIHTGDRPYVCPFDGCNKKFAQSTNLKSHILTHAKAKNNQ

No constants are given. Whether binding was seen depends on the method and setting. In cells and extracts the contact can be indirect. Some binding calls cover weakened binding; strength is not graded here.

“Flag-YY1 (Flag-YY1-pcDNA3.1) (from UniProt P25490 1-414)”: the binding result in test [1] was “binds”.
For the substance “endogenous transcription factor Yin Yang 1 (YY1) (from UniProt P25490 1-414)”, the binding result in test [2] is “binds”.

Source of the values: paper PMC12449339.
